According to the supplement of paper PMC4604168 (melanoma cell lines):
This is one part of the list. Repeats are few or missing, and single values can be far off.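 Imaging used 1,536-well plates; nuclei positive for cleaved PARP by antibody were divided by total DNA-stained nuclei to yield the apoptosis fraction. Doses for screening kept most cells viable, and cell lines differ markedly in resting and induced cleaved-PARP levels.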

Assays:
Assay in all cases: cleaved PARP positive nuclei fraction relative to DMSO control; melanoma cells; higher = more apoptosis
Conditions in all cases: library dose: low library concentration; 72 h
501Mel = tested on: 501Mel
A101D = tested on: A101D
A2058 = tested on: A2058
A375 = tested on: A375
C32 = tested on: C32
CBRC008 = tested on: CBRC008 (line from a melanoma biopsy)
CBRC014 = tested on: CBRC014 (line from a melanoma biopsy)
CBRC016 = tested on: CBRC016 (line from a melanoma biopsy)
CBRC017 = tested on: CBRC017 (line from a melanoma biopsy)
CBRC034 = tested on: CBRC034 (line from a melanoma biopsy)
COLO792 = tested on: COLO792
COLO800 = tested on: COLO800
COLO829 = tested on: COLO829
G361 = tested on: G361
IPC-298 = tested on: IPC-298
IST-MEL1 = tested on: IST-MEL1
LB2518-MEL = tested on: LB2518-MEL
LOXIMVI = tested on: LOXIMVI
MEL-HO = tested on: MEL-HO
CBRC013 = tested on: CBRC013 (line from a melanoma biopsy)

SMILES | cleaved PARP positive nuclei fraction (501Mel) | cleaved PARP positive nuclei fraction (A101D) | cleaved PARP positive nuclei fraction (A2058) | cleaved PARP positive nuclei fraction (A375) | cleaved PARP positive nuclei fraction (C32) | cleaved PARP positive nuclei fraction (CBRC008) | cleaved PARP positive nuclei fraction (CBRC014) | cleaved PARP positive nuclei fraction (CBRC016) | cleaved PARP positive nuclei fraction (CBRC017) | cleaved PARP positive nuclei fraction (CBRC034) | cleaved PARP positive nuclei fraction (COLO792) | cleaved PARP positive nuclei fraction (COLO800) | cleaved PARP positive nuclei fraction (COLO829) | cleaved PARP positive nuclei fraction (G361) | cleaved PARP positive nuclei fraction (IPC-298) | cleaved PARP positive nuclei fraction (IST-MEL1) | cleaved PARP positive nuclei fraction (LB2518-MEL) | cleaved PARP positive nuclei fraction (LOXIMVI) | cleaved PARP positive nuclei fraction (MEL-HO) | cleaved PARP positive nuclei fraction (CBRC013)
Nc1ccn([C@@H]2O[C@H](CO)[C@@H](O)C2(F)F)c(=O)n1 [gemcitabine] + COCC[n+]1c2c(n(Cc3cnccn3)c1C)C(=O)c1ccccc1C2=O [YM155] (first compound 0.0004 µM, partner dose 0.0004 µM) | 107% | 49.1% | 115% | 123% | 135% | 118% | 164% | 167% | 161% | 85.8% | 91.5% | 39.6% | 82.6% | 189% | 56.3% | 90.2% | 114% | 37% | 78.4% | 
CS(=O)(=O)CCNCc1ccc(-c2ccc3ncnc(Nc4ccc(OCc5cccc(F)c5)c(Cl)c4)c3c2)o1 [lapatinib] + O=C(Nc1cccc(Cl)c1)Nc1ncc(CCNc2ncnc3ccsc23)s1 [SNS314] (first compound 0.8 µM, partner dose 0.0008 µM) | 86.3% | 74% | 90% | 118% | 71.5% | 71% | 83.9% | 56.6% | 227% |  | 129% | 61.1% | 177% | 163% | 46.4% | 60.3% | 41.8% | 169% | 72.6% | 123%
C=C(c1ccc(C(=O)O)cc1)c1cc2c(cc1C)C(C)(C)CCC2(C)C [Bexarotene] + COc1cc2c(Oc3ccc4[nH]c(C)cc4c3F)ncnc2cc1OCCCN1CCCC1 [cediranib] (first compound 2 µM, partner dose 0.4 µM) | 173% | 89% | 197% | 29.1% | 181% | 50% | 110% | 164% | 96.8% |  | 46.9% | 45.3% | 185% | 104% | 83.6% | 131% | 96.8% | 50.3% | 110% | 135%
Cc1cc(Nc2cc(N3CCN(C)CC3)nc(/C=C/c3ccccc3)n2)n[nH]1 + Nc1ccn([C@@H]2O[C@H](CO)[C@@H](O)C2(F)F)c(=O)n1 [gemcitabine] (first compound 0.04 µM, partner dose 0.0004 µM) | 63.7% | 95.7% | 110% | 98.5% | 153% | 61.8% | 134% | 87.1% | 194% | 280% | 63.5% | 90.8% | 89.3% | 75.1% | 115% | 243% | 106% | 93.5% | 121% | 
CS(=O)(=O)CCNCc1ccc(-c2ccc3ncnc(Nc4ccc(OCc5cccc(F)c5)c(Cl)c4)c3c2)o1 [lapatinib] + COc1ccc(Cl)c(Nc2nc3ccccc3nc2NS(=O)(=O)c2cccc(NC(=O)C(C)(C)N)c2)c1 [XL147] (first compound 0.8 µM, partner dose 0.8 µM) | 156% | 104% | 90.6% | 143% | 74.2% | 83% | 118% | 106% | 119% | 292% | 65.7% | 68.6% | 132% | 61% | 29.9% | 131% | 55.2% | 93.6% | 38% | 
C[C@@H](Oc1cc(-c2cnn(C3CCNCC3)c2)cnc1N)c1c(Cl)ccc(F)c1Cl [Crizotinib] + Clc1ccc(Nc2nnc(Cc3ccncc3)c3ccccc23)cc1 [vatalanib] (first compound 0.2 µM, partner dose 2 µM) | 333% | 150% | 115% | 36.5% | 82.5% | 45.1% | 108% | 103% | 109% | 134% | 76.2% | 88.3% | 150% | 161% | 85.3% | 85.4% | 224% | 116% | 122% | 
CCCS(=O)(=O)Nc1ccc(F)c(C(=O)c2c[nH]c3ncc(Cl)cc23)c1F + Nc1ncn([C@H]2C[C@H](O)[C@@H](CO)O2)c(=O)n1 [decitabine] (first compound 0.08 µM, partner dose 0.1 µM) | 145% | 97.5% | 120% | 224% | 76.1% | 153% | 103% | 103% | 128% | 104% | 54.2% | 113% | 59.3% | 206% | 137% | 70.7% | 321% | 150% | 106% | 
Cc1cc(Nc2cc(N3CCN(C)CC3)nc(/C=C/c3ccccc3)n2)n[nH]1 + Cn1nnc2c(C(N)=O)ncn2c1=O [temozolomide] (first compound 0.04 µM, partner dose 2 µM) | 113% | 96.7% | 197% | 236% | 79.8% | 72.1% | 118% | 119% | 128% | 97.6% | 64.8% | 168% | 163% | 44.2% | 45.4% | 67.3% | 245% | 22.1% | 25.6% | 
